In the supplement of paper PMC10849652:
The list shows a part of the results.

By UniProt entry, the sequences of proteins in these tests, tags left out. Where a name states a change or a piece, a line headed by the entry shows the natural chain unless it says otherwise.
UniProt Q9Y4C2: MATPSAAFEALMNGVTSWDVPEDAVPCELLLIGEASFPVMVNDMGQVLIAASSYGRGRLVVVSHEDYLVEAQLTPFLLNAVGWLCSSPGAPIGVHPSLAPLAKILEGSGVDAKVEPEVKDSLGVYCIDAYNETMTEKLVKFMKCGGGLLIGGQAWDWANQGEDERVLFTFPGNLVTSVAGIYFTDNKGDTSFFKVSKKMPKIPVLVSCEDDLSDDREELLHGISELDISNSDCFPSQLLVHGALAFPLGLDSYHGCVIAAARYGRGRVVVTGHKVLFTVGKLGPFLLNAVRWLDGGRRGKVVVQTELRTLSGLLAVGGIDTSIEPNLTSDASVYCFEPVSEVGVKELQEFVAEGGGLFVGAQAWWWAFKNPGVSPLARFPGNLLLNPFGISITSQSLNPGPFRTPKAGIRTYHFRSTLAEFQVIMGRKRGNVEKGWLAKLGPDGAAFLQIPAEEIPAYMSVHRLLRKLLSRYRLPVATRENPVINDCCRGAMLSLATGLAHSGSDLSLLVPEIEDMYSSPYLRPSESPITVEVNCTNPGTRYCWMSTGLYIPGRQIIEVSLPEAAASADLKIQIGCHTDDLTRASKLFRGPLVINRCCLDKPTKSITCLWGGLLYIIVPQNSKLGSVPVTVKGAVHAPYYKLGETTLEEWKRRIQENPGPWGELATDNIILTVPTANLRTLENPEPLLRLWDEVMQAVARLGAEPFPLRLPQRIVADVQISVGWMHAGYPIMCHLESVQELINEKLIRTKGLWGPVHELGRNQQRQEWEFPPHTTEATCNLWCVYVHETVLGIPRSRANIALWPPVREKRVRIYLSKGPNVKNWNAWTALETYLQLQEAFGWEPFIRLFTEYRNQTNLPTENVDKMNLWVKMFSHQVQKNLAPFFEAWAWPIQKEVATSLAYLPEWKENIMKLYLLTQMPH
UniProt Q0IIM8: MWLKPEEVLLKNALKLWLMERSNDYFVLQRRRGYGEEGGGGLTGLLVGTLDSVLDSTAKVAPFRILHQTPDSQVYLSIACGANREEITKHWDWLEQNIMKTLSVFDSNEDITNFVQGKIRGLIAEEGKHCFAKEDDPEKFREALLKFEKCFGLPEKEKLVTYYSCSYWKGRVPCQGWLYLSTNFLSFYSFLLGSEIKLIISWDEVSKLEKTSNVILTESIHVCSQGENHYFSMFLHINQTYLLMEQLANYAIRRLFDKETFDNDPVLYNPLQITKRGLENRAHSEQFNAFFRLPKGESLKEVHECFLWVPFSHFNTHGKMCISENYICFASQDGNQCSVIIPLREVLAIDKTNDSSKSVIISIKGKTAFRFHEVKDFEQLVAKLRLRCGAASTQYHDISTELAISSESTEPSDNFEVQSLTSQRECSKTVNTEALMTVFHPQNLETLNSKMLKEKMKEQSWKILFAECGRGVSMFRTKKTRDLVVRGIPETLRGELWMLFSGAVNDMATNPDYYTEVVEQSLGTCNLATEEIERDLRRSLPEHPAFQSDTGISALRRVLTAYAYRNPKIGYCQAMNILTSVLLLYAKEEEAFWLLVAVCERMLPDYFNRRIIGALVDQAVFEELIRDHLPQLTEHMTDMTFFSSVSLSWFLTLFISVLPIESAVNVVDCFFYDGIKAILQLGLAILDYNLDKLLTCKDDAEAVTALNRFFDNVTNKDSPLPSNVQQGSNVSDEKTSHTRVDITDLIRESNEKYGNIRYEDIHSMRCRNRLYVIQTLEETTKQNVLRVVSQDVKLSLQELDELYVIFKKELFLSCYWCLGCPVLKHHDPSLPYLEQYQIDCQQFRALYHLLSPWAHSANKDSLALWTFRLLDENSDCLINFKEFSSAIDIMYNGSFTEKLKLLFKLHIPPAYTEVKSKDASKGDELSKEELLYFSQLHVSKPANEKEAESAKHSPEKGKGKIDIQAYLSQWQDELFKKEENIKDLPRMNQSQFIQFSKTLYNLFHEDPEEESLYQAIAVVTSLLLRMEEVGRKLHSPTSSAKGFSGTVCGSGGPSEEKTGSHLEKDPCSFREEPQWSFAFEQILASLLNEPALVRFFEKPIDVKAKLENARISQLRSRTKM
UniProt Q00059: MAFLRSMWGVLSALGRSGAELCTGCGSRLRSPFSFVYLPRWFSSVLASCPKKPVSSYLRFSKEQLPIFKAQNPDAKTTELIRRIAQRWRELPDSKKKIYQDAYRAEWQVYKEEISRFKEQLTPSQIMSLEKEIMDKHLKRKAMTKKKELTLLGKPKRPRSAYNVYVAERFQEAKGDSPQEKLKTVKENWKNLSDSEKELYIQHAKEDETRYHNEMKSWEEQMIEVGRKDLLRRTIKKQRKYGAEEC
UniProt Q86VP1, whole entry, looked up: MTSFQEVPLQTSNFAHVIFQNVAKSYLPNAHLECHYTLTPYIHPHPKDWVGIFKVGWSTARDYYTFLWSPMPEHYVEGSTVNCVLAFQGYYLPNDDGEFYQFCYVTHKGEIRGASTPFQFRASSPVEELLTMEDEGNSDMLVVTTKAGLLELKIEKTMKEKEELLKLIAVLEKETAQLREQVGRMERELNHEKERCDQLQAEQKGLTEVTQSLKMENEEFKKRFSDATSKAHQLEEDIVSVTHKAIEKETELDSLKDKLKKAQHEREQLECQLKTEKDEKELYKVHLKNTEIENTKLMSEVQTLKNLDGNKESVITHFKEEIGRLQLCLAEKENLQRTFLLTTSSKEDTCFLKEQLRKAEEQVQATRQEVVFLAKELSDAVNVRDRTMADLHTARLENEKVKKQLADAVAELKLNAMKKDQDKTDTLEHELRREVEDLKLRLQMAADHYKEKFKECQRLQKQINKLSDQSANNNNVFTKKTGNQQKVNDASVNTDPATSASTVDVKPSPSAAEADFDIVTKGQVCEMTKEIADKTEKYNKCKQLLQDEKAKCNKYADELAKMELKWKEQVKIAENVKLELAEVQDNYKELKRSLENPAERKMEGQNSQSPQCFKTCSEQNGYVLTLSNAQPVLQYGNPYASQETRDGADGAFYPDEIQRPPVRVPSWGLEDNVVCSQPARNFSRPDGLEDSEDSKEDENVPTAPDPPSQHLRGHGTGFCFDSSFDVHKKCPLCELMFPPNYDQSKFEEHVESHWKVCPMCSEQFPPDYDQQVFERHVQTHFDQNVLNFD
UniProt Q9UPU7: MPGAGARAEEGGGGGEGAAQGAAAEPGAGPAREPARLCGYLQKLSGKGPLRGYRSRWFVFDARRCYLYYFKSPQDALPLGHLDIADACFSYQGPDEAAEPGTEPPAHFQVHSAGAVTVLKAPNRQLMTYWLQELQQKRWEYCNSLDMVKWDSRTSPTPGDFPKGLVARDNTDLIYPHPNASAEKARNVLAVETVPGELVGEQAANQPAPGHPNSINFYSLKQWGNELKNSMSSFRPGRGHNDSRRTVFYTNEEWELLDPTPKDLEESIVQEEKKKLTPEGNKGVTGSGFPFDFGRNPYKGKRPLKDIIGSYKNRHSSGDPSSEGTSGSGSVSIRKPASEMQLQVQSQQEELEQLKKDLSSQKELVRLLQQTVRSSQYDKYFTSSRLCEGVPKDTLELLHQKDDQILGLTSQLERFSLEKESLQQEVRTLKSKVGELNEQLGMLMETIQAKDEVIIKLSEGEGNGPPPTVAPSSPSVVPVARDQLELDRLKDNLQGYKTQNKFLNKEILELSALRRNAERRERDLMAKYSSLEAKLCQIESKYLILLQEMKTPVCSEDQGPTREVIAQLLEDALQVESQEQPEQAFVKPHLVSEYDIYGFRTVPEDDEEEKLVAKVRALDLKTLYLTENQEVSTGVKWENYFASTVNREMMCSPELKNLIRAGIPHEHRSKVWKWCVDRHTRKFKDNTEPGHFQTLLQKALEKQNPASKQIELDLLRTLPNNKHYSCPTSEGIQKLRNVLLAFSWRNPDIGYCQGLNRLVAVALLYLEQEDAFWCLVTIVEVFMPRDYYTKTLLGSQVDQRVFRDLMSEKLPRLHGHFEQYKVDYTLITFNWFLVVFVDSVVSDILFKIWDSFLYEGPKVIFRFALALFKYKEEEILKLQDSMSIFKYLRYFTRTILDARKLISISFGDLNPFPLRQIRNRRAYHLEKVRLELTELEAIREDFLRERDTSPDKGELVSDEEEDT
UniProt Q9BZK7: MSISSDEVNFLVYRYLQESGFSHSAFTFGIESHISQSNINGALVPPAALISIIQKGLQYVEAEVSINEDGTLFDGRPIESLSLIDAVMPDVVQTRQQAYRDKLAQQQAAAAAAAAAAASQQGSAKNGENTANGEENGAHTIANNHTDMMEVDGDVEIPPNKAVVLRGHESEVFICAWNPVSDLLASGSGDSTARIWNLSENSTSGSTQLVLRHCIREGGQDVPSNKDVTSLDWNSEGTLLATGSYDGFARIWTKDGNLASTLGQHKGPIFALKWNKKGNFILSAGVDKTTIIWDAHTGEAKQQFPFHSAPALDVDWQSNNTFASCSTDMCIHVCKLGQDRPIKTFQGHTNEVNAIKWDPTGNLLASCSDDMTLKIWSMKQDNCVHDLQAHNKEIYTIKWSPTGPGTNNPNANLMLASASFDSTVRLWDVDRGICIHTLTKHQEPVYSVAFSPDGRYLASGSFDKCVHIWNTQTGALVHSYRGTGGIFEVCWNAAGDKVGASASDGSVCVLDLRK
UniProt Q8IWB9: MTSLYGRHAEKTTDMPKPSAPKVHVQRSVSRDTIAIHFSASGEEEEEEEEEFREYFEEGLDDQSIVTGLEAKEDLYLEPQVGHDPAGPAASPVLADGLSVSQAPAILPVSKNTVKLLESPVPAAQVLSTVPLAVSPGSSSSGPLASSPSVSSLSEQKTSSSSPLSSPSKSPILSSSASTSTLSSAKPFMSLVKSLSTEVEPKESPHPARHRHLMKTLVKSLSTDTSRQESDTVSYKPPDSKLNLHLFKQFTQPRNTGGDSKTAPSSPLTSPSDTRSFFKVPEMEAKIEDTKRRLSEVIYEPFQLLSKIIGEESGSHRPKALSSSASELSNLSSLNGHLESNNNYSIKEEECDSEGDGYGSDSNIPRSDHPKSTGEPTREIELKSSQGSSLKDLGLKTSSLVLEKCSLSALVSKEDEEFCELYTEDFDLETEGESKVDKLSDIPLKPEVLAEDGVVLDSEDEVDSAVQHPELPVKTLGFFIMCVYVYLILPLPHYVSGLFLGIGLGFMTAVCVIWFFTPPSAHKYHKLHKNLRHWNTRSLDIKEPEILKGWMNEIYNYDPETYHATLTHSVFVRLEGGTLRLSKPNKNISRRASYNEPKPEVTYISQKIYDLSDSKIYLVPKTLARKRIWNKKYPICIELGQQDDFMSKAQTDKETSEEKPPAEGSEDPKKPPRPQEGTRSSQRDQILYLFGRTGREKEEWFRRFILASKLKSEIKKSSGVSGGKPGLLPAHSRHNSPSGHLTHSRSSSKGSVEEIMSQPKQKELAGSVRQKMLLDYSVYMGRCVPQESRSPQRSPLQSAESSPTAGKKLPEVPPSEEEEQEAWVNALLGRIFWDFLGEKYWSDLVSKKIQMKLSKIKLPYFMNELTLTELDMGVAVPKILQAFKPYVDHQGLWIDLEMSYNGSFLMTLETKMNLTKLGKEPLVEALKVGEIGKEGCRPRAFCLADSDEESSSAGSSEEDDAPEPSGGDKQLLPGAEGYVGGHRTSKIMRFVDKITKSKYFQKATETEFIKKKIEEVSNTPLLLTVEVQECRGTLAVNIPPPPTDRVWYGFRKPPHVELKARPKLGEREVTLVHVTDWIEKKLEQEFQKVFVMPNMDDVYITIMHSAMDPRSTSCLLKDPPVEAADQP
UniProt O75347: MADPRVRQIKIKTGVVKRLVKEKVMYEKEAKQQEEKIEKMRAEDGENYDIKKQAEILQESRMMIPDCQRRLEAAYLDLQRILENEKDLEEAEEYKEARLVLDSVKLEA
UniProt Q9BW92: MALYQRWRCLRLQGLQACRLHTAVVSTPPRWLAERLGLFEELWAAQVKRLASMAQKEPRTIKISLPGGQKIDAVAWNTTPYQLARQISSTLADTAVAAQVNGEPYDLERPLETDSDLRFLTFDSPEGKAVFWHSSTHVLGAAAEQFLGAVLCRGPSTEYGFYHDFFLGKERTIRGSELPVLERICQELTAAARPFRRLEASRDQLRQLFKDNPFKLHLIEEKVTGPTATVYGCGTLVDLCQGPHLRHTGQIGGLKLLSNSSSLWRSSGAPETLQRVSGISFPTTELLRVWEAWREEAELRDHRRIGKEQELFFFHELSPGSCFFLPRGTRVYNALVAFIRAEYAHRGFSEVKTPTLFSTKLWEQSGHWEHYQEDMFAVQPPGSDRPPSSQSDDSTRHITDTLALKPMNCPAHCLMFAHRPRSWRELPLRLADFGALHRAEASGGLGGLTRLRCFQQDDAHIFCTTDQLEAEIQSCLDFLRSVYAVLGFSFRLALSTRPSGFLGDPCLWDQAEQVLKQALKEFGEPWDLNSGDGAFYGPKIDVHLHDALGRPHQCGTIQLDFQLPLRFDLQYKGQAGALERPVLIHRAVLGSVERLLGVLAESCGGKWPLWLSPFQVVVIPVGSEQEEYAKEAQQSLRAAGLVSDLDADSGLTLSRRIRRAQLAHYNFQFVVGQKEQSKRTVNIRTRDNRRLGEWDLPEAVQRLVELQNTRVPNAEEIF

What was measured:
Experiment in all cases: log2 fold change, soluble protein after heating vs DMSO (PISA); higher = thermal stabilisation; K562 lysate, 10 uM; active = over 0.2 and 3.5 SD of the protein, either way, in both replicates (recomputed)
ibrutinib = compound: C=CC(=O)N1CCC[C@@H](n2nc(-c3ccc(Oc4ccccc4)cc3)c3c(N)ncnc32)C1 [ibrutinib]
Procedure, shortened: (§1)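 To prepare the extract, K562 pellets were dounce-homogenised in PBS pH 7.4 with 1 mM MgCl2, giving crude material at 1 mg/mL protein. This was treated with 10 μM compound for 30 min, then heated in aliquots for 3 min over 48°C-58°C before pooling and addition of NP-40 to 0.5% at 4°C. Centrifugation at 21,000xg for 90 min left soluble protein in the supernatant, which TMTpro 16plex LC-MS/MS quantified with equalised channel sums. Results are log-two fold changes in thermal stability compared with solvent controls, from duplicates.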

[1] = compound: CC(=O)c1cnc2ccc(-c3cc(Cl)c(O)c(Cl)c3)nc2c1N[C@H]1CC[C@H](CN(C)C)CC1
Procedure, shortened: as §1

ralimetinib = compound: CC(C)(C)Cn1c(N)nc2ccc(-c3[nH]c(C(C)(C)C)nc3-c3ccc(F)cc3)nc21 [ralimetinib]
Procedure, shortened: as §1

[2] = compound: CC(C)(O)CC(=O)NCCn1ccc2ncnc(Nc3ccc(Oc4cccc(C(F)(F)F)c4)c(Cl)c3)c21
Procedure, shortened: as §1

[3] = compound: CC(C)C1=C2N=C(C=C(N2N=C1)NCC3=CC=CC=C3)NCCCCCCN
Procedure, shortened: as §1

[4] = compound: CC1=C(C(CC(=O)N1)C2=CC=C(C=C2)C(F)(F)F)C(=O)NC3=C(C=C4C(=C3)C=NN4)F
Procedure, shortened: as §1

[5] = compound: CC1=C(C2=C(C=C1)C(=O)C3=CC=CC=C3N2CCCN)C
Procedure, shortened: as §1

[6] = compound: CC1=C(C=C(C=C1)NC(=O)C2=CC(=CC=C2)C(C)(C)C#N)NC3=CC4=C(C=C3)N=CN(C4=O)C
Procedure, shortened: as §1

[7] = compound: CC1=C(C=C(C=C1)NC(=O)C2=CC(=CC=C2)N(C)C)NC(=O)C3=CC=C(C=C3)O
Procedure, shortened: as §1

[8] = compound: CC1=CC=C(C=C1)SC2=C3C=C(SC3=CN=C2)C(=O)N
Procedure, shortened: as §1

vemurafenib = compound: CCCS(=O)(=O)Nc1ccc(F)c(C(=O)c2c[nH]c3ncc(-c4ccc(Cl)cc4)cc23)c1F [vemurafenib]
Procedure, shortened: as §1

[9] = compound: CCCS(=O)(=O)Nc1ccc(F)c(C(=O)c2c[nH]c3ncc(Cl)cc23)c1F
Procedure, shortened: as §1

barasertib = compound: CCN(CCCOc1ccc2c(Nc3cc(CC(=O)Nc4cccc(F)c4)[nH]n3)ncnc2c1)CCOP(=O)(O)O [barasertib]
Procedure, shortened: as §1

[10] = compound: CC[C@@H]1C(=O)N(C)c2cnc(Nc3ccc(C(=O)NC4CCN(C)CC4)cc3OC)nc2N1C1CCCC1
Procedure, shortened: as §1

volasertib = compound: CC[C@@H]1C(=O)N(C)c2cnc(Nc3ccc(C(=O)N[C@H]4CC[C@H](N5CCN(CC6CC6)CC5)CC4)cc3OC)nc2N1C(C)C [volasertib]
Procedure, shortened: as §1

[11] = compound: CCn1c(C(=O)N(C2CC2)C2CC2)cc2c3c(ncn3C)c(Nc3cc(C)n(C)n3)nc21
Procedure, shortened: as §1

[12] = compound: CCn1cc(-c2ccnc3[nH]c(-c4cccc(CN(C)C)c4)cc23)c(-c2ccc(NC(=O)N(C)C)cc2)n1
Procedure, shortened: as §1

[13] = compound: CN1CCC(CNc2ccc3ncc(-c4cccc(OC(F)(F)F)c4)n3n2)CC1
Procedure, shortened: as §1

saracatinib = compound: CN1CCN(CCOc2cc(OC3CCOCC3)c3c(Nc4c(Cl)ccc5c4OCO5)ncnc3c2)CC1 [saracatinib]
Procedure, shortened: as §1

sotrastaurin = compound: CN1CCN(c2nc(C3=C(c4c[nH]c5ccccc45)C(=O)NC3=O)c3ccccc3n2)CC1 [sotrastaurin]
Procedure, shortened: as §1

Target | log2 fold change (ibrutinib) | log2 fold change [1] | log2 fold change (ralimetinib) | log2 fold change [2] | log2 fold change [3] | log2 fold change [4] | log2 fold change [5] | log2 fold change [6] | log2 fold change [7] | log2 fold change [8] | log2 fold change (vemurafenib) | log2 fold change [9] | log2 fold change (barasertib) | log2 fold change [10] | log2 fold change (volasertib) | log2 fold change [11] | log2 fold change [12] | log2 fold change [13] | log2 fold change (saracatinib) | log2 fold change (sotrastaurin)
TCAF1 (UniProt Q9Y4C2) | inactive: 0.03 | inactive: -0.013 | inactive: 0.029 | inactive: -0.005 | inactive: 0.002 | inactive: -0.01 | inactive: 0.013 | inactive: -0.047 | inactive: 0.047 | inactive: 0.035 | inactive: 0.016 | inactive: 0.05 | inactive: 0.036 | inactive: 0.009 | inactive: -0.049 | inactive: 0.003 | inactive: 0.097 | inactive: -0.077 | inactive: 0.056 | inactive: 0.011
TBC1D8B (UniProt Q0IIM8) | inactive: 0.044 | inactive: -0.039 | inactive: -0.049 | inactive: -0.017 | inactive: 0.031 | inactive: -0.072 | inactive: 0.006 | inactive: 0.016 | inactive: -0.056 | inactive: -0.051 | inactive: -0.007 | inactive: -0.025 | inactive: 0.108 | inactive: 0.096 | inactive: 0.072 | inactive: -0.024 | active: -0.308 | inactive: 0.192 | inactive: -0.047 | inactive: -0.042
TBC1D17 (UniProt Q9HA65) | inactive: 0.015 | inactive: 0.014 | inactive: 0.038 | inactive: -0.065 | inactive: 0.015 | inactive: 0.064 | inactive: 0.049 | inactive: -0.043 | inactive: -0.016 | inactive: 0.019 | inactive: -0.086 | inactive: 0.038 | inactive: 0.007 | inactive: -0.114 | inactive: -0.021 | inactive: 0 | inactive: 0.018 | inactive: -0.008 | inactive: -0.026 | inactive: 0.002
TECR (UniProt Q9NZ01) | inactive: -0.003 | inactive: 0.037 | inactive: 0 | inactive: -0.046 | inactive: -0.003 | inactive: 0.044 | inactive: 0.041 | inactive: -0.031 | inactive: 0.06 | inactive: 0.025 | inactive: -0.003 | inactive: 0.054 | inactive: 0.082 | inactive: -0.02 | inactive: 0.001 | inactive: 0.032 | inactive: 0.014 | inactive: -0.247 | inactive: 0.045 | inactive: -0.034
TGFB1 (UniProt P01137) | inactive: 0.001 | inactive: -0.013 | inactive: 0.012 | inactive: -0.046 | inactive: -0.015 | inactive: 0.05 | inactive: -0.035 | inactive: -0.042 | inactive: -0.039 | inactive: -0.014 | inactive: 0.001 | inactive: 0.012 | inactive: -0.043 | inactive: 0.011 | inactive: 0.027 | inactive: 0.02 | inactive: -0.123 | inactive: 0.039 | inactive: 0.022 | inactive: 0.031
TBC1D9B isoform 2 (UniProt Q66K14) | inactive: 0.004 | inactive: -0.041 | inactive: 0.03 | inactive: -0.15 | inactive: 0.063 | inactive: -0.064 | inactive: -0.038 | inactive: 0.049 | inactive: -0.003 | inactive: -0.018 | inactive: 0.027 | inactive: 0.011 | inactive: 0.05 | inactive: 0.039 | inactive: 0.002 | inactive: -0.089 | inactive: -0.082 | inactive: 0.057 | inactive: 0.01 | inactive: -0.009
TCEA1 (UniProt P23193) | inactive: 0.003 | inactive: 0.001 | inactive: -0.023 | inactive: 0.023 | inactive: -0.024 | inactive: -0.003 | inactive: -0.001 | inactive: -0.011 | inactive: -0.008 | inactive: -0.015 | inactive: -0.025 | inactive: 0.021 | inactive: -0.053 | inactive: 0.042 | inactive: 0.013 | inactive: -0.022 | inactive: 0.206 | inactive: -0.103 | inactive: -0.006 | inactive: 0.014
TFAM (UniProt Q00059) | inactive: 0.014 | inactive: 0 | inactive: -0.043 | inactive: 0.01 | inactive: 0.002 | inactive: -0.014 | inactive: -0.118 | inactive: -0.017 | inactive: -0.032 | inactive: 0.031 | inactive: -0.004 | inactive: -0.002 | inactive: -0.021 | inactive: 0.032 | inactive: 0.014 | inactive: 0.015 | inactive: 0.041 | inactive: -0.177 | inactive: 0.016 | inactive: -0.017
TAX1BP1 (UniProt Q86VP1) | inactive: 0.01 | inactive: 0.05 | inactive: 0.018 | inactive: -0.035 | inactive: -0.031 | inactive: 0.019 | inactive: 0.019 | inactive: 0.007 | inactive: -0.019 | inactive: -0.018 | inactive: 0.028 | inactive: 0.006 | inactive: 0.041 | inactive: 0.05 | inactive: 0.001 | inactive: -0.005 | inactive: -0.009 | inactive: -0.004 | inactive: 0.01 | inactive: 0.023
TBC1D2B (UniProt Q9UPU7) | inactive: 0.075 | inactive: -0.017 | inactive: 0.008 | inactive: 0.003 | inactive: -0.054 | inactive: 0.058 | inactive: 0.006 | inactive: -0.03 | inactive: 0.031 | inactive: 0.025 | inactive: 0.037 | inactive: 0.014 | inactive: 0.001 | inactive: 0.012 | inactive: -0.099 | inactive: -0.018 | inactive: 0.004 | inactive: -0.041 | inactive: 0.033 | inactive: 0.062
TCF3 (UniProt P15923) | inactive: 0.001 | inactive: 0.027 | inactive: 0.014 | inactive: -0.028 | inactive: -0.005 | inactive: -0.034 | inactive: -0.074 | inactive: -0.061 | inactive: -0.045 | inactive: -0.016 | inactive: -0.01 | inactive: 0.002 | inactive: 0.012 | inactive: 0.129 | inactive: 0.002 | inactive: 0.047 | inactive: 0.028 | inactive: 0.043 | inactive: -0.158 | inactive: 0.002
TBL1XR1 (UniProt Q9BZK7) | inactive: 0.029 | inactive: 0.004 | inactive: 0.03 | inactive: -0.064 | inactive: 0.005 | inactive: -0.019 | inactive: 0.012 | inactive: -0.007 | inactive: -0.027 | inactive: -0.023 | inactive: 0.026 | inactive: 0.052 | inactive: 0.041 | inactive: 0.016 | inactive: 0.035 | inactive: -0.035 | inactive: 0.171 | inactive: 0.011 | inactive: -0.014 | inactive: -0.005
TEX2 isoform 2 (UniProt Q8IWB9) | inactive: 0.098 | inactive: -0.011 | inactive: 0.131 | inactive: -0.042 | inactive: 0.119 | inactive: 0.071 | inactive: -0.057 | inactive: -0.001 | inactive: -0.05 | inactive: -0.071 | inactive: -0.058 | inactive: -0.063 | inactive: -0.045 | inactive: -0.07 | inactive: -0.013 | inactive: -0.065 | inactive: 0.104 | inactive: -0.07 | inactive: 0.026 | inactive: -0.003
TBCA (UniProt O75347) | inactive: 0.02 | inactive: 0.043 | inactive: 0.032 | inactive: 0.035 | inactive: -0.042 | inactive: -0.063 | inactive: 0.083 | inactive: -0.033 | inactive: -0.01 | inactive: -0.001 | inactive: -0.03 | inactive: -0.023 | inactive: -0.009 | inactive: -0.054 | inactive: 0.019 | inactive: 0.05 | inactive: 0.021 | inactive: 0.031 | inactive: -0.07 | inactive: -0.014
TARS2 (UniProt Q9BW92) | inactive: -0.06 | inactive: 0.051 | inactive: 0.005 | inactive: -0.021 | inactive: 0.041 | inactive: 0.008 | inactive: 0.03 | inactive: 0.028 | inactive: 0.035 | inactive: 0.009 | inactive: -0.009 | inactive: -0.001 | inactive: 0.033 | inactive: -0.069 | inactive: -0.055 | inactive: 0.035 | inactive: 0.038 | inactive: -0.056 | inactive: 0.003 | inactive: 0.001
TANGO2 isoform 4 (UniProt Q6ICL3) | inactive: 0.097 | inactive: -0.027 | inactive: 0.005 | inactive: -0.028 | inactive: -0.038 | inactive: -0.062 | inactive: -0.005 | inactive: -0.015 | inactive: -0.007 | inactive: 0.003 | inactive: -0.054 | inactive: 0.006 | inactive: -0.093 | inactive: -0.061 | inactive: -0.044 | inactive: 0.009 | inactive: -0.029 | inactive: 0.009 | inactive: 0.007 | inactive: 0.073

Whole records as entered above. Order of values: log2 fold change (ibrutinib)	log2 fold change [1]	log2 fold change (ralimetinib)	log2 fold change [2]	log2 fold change [3]	log2 fold change [4]	log2 fold change [5]	log2 fold change [6]	log2 fold change [7]	log2 fold change [8]	log2 fold change (vemurafenib)	log2 fold change [9]	log2 fold change (barasertib)	log2 fold change [10]	log2 fold change (volasertib)	log2 fold change [11]	log2 fold change [12]	log2 fold change [13]	log2 fold change (saracatinib)	log2 fold change (sotrastaurin)
TGFB1 (UniProt P01137) is entered as inactive: 0.001	inactive: -0.013	inactive: 0.012	inactive: -0.046	inactive: -0.015	inactive: 0.05	inactive: -0.035	inactive: -0.042	inactive: -0.039	inactive: -0.014	inactive: 0.001	inactive: 0.012	inactive: -0.043	inactive: 0.011	inactive: 0.027	inactive: 0.02	inactive: -0.123	inactive: 0.039	inactive: 0.022	inactive: 0.031
TANGO2 isoform 4 (UniProt Q6ICL3) is entered as inactive: 0.097	inactive: -0.027	inactive: 0.005	inactive: -0.028	inactive: -0.038	inactive: -0.062	inactive: -0.005	inactive: -0.015	inactive: -0.007	inactive: 0.003	inactive: -0.054	inactive: 0.006	inactive: -0.093	inactive: -0.061	inactive: -0.044	inactive: 0.009	inactive: -0.029	inactive: 0.009	inactive: 0.007	inactive: 0.073
